“Also recorded” adds a separate entry of the source. At least one structure is not confirmed: it was looked up by name or label, or the drawing left a doubt.
Columns and labels:
HCMV, strain AD-169 = test: Virucidal test versus HCMV, strain AD-169; format: cell-based, human cytomegalovirus; settings: one hour incubation at 37° C.
[1] = tested on: human cytomegalovirus (HCMV), strain AD-169; test: Antiviral test (plaque reduction) versus HCMV, strain AD-169, in MRC-5 cells; format: cell-based

## Cc1cc(O)c2c(c1)C(C1c3cc(C)cc(O)c3C(=O)c3c(O)cc(O)cc31)c1cc(O)cc(O)c1C2=O (stereo not shown) [Emodin Bianthrone (mixed), emodin bianthrone]
HCMV, strain AD-169; final concentration 0.32 μg/ml
  Virus Titer: 10^6.08 pfu/ml
HCMV, strain AD-169; final concentration 1.0 μg/ml
  Virus Titer: 10^6.08 pfu/ml
HCMV, strain AD-169; final concentration 3.2 μg/ml
  Virus Titer: 10^5.70 pfu/ml

## O=C(O)c1cc(O)c2c(c1)C(=O)c1cccc(O)c1C2=O [Rhein, rhein]
[1]
  Activity against HCMV: definitely active; also recorded: show activity

— patent US6686393B1, “Pharmaceutical compositions having antiviral activity against human cytomegalovirus” (Murdock International Corporation, priority 1990, dated 2004)
